Results as given in the supplement of paper PMC6411743.
± gives the standard deviation of the averaged measurements. This is a selection; strong and weak results do not stand in their true shares.

The chains behind the UniProt entries cited, without tags or fusion partners. Where a name states a change or a piece, a line headed by the entry shows the natural chain unless it says otherwise.
UniProt P35227: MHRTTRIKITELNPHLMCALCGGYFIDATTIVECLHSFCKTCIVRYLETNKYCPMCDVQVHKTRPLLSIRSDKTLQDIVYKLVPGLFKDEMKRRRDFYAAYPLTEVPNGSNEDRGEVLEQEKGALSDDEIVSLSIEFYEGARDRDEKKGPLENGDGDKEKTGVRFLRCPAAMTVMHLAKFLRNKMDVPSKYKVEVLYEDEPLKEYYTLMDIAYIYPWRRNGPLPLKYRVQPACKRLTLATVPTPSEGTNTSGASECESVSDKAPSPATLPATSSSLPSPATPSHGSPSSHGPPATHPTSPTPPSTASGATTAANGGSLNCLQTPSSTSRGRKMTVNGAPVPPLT
UniProt Q9Y3E1: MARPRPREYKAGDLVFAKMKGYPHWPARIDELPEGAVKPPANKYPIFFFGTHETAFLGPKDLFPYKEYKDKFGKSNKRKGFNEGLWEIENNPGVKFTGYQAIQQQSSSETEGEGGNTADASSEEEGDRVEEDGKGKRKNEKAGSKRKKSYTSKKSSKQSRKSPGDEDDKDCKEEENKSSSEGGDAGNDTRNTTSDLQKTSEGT
UniProt Q00341: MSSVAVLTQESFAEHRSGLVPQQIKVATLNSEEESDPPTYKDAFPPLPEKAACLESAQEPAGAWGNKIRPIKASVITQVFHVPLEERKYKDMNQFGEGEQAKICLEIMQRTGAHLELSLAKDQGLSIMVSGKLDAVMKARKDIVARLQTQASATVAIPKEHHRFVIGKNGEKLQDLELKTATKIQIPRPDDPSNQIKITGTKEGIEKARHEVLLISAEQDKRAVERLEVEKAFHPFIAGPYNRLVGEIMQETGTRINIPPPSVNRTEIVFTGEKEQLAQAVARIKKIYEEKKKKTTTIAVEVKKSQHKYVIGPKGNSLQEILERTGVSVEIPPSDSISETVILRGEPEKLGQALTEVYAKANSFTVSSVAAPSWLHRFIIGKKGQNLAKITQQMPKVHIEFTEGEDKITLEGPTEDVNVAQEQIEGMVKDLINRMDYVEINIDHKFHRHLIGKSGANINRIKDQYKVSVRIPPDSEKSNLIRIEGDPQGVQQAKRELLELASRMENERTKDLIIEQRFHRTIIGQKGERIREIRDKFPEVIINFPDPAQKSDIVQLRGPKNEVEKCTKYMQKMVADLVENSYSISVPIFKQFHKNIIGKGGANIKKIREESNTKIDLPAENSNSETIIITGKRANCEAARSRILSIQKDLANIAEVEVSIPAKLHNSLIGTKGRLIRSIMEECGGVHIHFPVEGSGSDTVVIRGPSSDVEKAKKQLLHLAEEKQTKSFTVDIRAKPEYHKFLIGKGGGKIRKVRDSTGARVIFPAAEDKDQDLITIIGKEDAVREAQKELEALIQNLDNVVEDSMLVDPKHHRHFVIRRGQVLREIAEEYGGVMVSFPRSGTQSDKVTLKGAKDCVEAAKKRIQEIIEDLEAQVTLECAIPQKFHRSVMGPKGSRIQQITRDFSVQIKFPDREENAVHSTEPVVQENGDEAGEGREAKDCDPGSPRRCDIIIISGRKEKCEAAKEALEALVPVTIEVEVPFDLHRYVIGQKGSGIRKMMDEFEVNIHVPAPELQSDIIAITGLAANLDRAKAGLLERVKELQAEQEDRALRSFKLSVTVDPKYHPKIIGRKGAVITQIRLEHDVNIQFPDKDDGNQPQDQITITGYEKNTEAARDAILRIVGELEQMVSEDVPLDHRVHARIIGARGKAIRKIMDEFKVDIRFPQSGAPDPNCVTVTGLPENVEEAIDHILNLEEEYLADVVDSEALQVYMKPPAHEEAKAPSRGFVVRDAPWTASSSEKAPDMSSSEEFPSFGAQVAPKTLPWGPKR
UniProt Q9BXJ8: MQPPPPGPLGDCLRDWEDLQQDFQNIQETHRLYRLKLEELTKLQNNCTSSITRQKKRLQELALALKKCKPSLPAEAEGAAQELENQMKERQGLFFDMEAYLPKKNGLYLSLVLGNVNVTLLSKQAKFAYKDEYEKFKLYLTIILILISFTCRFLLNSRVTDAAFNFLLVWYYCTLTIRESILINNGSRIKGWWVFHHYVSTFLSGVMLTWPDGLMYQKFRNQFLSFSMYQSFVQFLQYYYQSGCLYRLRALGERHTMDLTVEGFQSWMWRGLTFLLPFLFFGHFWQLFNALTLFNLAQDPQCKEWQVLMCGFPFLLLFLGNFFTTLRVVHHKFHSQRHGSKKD
UniProt Q9BSV6: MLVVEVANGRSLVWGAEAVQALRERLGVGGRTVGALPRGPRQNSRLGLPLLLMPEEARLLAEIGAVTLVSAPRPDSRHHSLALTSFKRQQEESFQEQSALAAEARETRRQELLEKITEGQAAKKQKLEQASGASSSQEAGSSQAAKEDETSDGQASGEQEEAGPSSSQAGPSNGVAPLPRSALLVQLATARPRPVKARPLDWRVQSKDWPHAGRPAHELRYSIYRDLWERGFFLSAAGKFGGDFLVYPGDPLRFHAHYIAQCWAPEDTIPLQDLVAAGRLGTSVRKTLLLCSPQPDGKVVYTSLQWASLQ
UniProt P0C1Z6, whole entry: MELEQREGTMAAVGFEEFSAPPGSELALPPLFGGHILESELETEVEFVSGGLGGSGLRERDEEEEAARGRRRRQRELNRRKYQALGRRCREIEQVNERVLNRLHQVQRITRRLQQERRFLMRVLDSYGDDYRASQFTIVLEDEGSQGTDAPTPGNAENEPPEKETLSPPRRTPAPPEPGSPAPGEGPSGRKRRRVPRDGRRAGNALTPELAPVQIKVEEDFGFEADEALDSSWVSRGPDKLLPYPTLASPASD
UniProt O75503: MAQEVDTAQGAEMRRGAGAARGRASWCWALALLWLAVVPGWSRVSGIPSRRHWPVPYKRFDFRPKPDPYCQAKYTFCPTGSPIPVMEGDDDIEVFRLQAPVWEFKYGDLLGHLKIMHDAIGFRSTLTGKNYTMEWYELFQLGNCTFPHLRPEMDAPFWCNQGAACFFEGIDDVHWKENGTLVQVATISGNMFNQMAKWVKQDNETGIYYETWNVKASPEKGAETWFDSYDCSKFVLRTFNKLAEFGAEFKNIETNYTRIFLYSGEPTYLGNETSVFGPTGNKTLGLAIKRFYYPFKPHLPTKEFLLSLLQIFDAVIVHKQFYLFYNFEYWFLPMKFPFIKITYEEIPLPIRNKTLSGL
UniProt P25787: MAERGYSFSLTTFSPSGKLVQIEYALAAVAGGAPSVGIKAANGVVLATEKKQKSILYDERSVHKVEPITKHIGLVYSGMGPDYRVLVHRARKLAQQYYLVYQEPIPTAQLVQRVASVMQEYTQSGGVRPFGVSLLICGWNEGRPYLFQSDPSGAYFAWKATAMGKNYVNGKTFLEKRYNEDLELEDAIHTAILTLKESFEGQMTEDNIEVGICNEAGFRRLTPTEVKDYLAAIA
UniProt Q14241: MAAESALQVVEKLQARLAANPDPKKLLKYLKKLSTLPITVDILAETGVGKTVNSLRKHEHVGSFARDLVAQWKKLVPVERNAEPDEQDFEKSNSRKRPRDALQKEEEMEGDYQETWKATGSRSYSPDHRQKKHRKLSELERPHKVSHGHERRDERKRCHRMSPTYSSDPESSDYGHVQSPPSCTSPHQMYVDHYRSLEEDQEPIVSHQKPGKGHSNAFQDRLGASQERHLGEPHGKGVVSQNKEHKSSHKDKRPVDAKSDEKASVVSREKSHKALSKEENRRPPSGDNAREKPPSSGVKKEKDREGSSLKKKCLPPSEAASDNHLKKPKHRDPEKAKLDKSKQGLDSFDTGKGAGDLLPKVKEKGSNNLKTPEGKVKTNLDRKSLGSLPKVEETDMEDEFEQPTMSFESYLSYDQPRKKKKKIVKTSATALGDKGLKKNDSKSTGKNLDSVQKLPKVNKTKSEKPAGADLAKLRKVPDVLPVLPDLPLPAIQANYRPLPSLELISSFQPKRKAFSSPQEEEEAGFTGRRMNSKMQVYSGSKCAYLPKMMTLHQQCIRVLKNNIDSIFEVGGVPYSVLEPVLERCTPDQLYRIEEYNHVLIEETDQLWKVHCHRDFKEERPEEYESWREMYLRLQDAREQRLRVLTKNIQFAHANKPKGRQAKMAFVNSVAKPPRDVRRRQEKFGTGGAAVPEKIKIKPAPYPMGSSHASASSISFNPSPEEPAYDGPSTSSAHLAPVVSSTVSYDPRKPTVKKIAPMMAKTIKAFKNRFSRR
UniProt Q16670: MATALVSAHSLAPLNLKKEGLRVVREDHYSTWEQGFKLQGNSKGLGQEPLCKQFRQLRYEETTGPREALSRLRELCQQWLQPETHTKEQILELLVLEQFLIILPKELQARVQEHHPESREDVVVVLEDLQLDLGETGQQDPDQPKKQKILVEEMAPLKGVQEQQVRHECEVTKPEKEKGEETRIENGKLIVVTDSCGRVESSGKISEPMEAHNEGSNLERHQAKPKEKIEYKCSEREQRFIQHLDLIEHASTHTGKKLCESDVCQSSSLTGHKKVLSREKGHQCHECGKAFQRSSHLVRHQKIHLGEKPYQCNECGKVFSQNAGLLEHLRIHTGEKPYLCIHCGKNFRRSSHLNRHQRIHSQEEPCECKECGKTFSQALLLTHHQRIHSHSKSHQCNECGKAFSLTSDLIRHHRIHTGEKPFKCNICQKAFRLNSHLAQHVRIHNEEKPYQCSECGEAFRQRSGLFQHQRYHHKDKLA
UniProt Q9UMR5: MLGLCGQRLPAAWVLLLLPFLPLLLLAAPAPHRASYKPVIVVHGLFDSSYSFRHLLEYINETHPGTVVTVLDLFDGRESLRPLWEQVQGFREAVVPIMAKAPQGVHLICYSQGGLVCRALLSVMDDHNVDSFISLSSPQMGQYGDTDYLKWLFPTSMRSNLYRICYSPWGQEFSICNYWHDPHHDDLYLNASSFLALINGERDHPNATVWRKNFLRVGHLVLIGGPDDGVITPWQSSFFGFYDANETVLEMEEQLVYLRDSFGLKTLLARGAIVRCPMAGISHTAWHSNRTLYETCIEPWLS
UniProt P46379: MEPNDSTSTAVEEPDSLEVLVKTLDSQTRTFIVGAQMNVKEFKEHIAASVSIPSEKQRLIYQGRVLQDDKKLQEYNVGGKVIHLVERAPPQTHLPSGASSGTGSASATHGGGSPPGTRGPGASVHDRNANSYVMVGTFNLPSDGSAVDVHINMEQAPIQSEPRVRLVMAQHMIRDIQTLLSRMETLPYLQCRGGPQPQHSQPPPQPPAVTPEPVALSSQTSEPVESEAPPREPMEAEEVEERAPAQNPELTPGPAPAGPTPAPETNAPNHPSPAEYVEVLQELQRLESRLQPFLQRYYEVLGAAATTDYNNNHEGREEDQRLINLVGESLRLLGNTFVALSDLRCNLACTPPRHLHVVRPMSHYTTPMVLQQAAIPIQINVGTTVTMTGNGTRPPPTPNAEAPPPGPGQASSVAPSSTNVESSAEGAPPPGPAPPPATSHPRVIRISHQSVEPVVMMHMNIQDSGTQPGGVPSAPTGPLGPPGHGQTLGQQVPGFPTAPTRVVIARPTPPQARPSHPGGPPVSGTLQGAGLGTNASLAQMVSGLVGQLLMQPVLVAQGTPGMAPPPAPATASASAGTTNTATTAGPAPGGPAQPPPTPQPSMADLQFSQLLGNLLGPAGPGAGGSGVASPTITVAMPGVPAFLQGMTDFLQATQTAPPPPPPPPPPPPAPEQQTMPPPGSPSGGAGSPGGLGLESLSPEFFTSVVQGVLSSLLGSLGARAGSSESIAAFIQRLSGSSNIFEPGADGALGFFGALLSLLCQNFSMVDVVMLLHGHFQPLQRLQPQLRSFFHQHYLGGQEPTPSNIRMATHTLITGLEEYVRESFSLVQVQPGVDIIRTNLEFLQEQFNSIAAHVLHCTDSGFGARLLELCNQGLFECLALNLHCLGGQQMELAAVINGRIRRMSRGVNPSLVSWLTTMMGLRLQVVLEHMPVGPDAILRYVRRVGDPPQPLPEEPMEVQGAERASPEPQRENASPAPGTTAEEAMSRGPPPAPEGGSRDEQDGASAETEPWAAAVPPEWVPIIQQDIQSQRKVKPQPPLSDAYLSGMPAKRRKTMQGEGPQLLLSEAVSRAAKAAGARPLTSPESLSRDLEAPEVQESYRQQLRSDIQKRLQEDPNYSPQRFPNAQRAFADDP

Tests used:
Assay in all cases: NP40-soluble protein abundance relative to vehicle (solubility fold change) (ratio); higher = more soluble protein in presence of ATP
A0A024R1V6|P35227 = A0A024R1V6|P35227 (UniProt P35227)
Procedure, shortened: (§1)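 Jurkat crude lysate (Dounce-homogenised) was treated with eight concentrations from 0.1 to 10 mM for 10 min at room temperature, then 3 min at 37 °C. It was solubilised with 0.8% NP40 and benzonase (60 min, 4 °C) and ultracentrifuged, and the supernatant was TMT-labelled for LC-MS/MS. Intensities were vsn-normalised, and the value is the fold change against the NP40-processed vehicle per replicate, from three independent experiments.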

A0A024R216|Q9Y3E1 = A0A024R216|Q9Y3E1 (UniProt Q9Y3E1)
Procedure, shortened: as §1

A0A024R4E5 = A0A024R4E5 (UniProt Q00341)
Procedure, shortened: as §1

[1] = molecular target: A0A024R4K9|A0A087WZA9|A0A087X266|Q9BXJ8 and related entries (UniProt Q9BXJ8)
Procedure, shortened: as §1

A0A024R4M0|P46781 = A0A024R4M0|P46781 (UniProt P46781)
Procedure, shortened: as §1

[2] = molecular target: A0A024R4N9|A0A0G2JNK5|A9C4B9 and related entries (UniProt Q9BSV6)
Procedure, shortened: as §1

[3] = molecular target: A0A024R4Q5|G5E9B5 and related entries (UniProt P0C1Z6)
Procedure, shortened: as §1

A0A024R644|O75503 = A0A024R644|O75503 (UniProt O75503)
Procedure, shortened: as §1

A0A024RA52|P25787 = A0A024RA52|P25787 (UniProt P25787)
Procedure, shortened: as §1

A0A024RAC6 = A0A024RAC6 (UniProt Q14241)
Procedure, shortened: as §1

[4] = molecular target: A0A024RCN4|A0A087X2F1|Q16670 and related entries (UniProt Q16670)
Procedure, shortened: as §1

[5] = molecular target: A0A024RCQ8|A0A0G2JH76|A0A140T8X7|Q9UMR5 and related entries (UniProt Q9UMR5)
Procedure, shortened: as §1

[6] = molecular target: A0A024RCR6|A0A0G2JK23|P46379 and related entries (UniProt P46379)
Procedure, shortened: as §1

A0A067XG54 = molecular target: T1, A0A067XG54 (UniProt Q8NB49)
T1 sequence (whole entry): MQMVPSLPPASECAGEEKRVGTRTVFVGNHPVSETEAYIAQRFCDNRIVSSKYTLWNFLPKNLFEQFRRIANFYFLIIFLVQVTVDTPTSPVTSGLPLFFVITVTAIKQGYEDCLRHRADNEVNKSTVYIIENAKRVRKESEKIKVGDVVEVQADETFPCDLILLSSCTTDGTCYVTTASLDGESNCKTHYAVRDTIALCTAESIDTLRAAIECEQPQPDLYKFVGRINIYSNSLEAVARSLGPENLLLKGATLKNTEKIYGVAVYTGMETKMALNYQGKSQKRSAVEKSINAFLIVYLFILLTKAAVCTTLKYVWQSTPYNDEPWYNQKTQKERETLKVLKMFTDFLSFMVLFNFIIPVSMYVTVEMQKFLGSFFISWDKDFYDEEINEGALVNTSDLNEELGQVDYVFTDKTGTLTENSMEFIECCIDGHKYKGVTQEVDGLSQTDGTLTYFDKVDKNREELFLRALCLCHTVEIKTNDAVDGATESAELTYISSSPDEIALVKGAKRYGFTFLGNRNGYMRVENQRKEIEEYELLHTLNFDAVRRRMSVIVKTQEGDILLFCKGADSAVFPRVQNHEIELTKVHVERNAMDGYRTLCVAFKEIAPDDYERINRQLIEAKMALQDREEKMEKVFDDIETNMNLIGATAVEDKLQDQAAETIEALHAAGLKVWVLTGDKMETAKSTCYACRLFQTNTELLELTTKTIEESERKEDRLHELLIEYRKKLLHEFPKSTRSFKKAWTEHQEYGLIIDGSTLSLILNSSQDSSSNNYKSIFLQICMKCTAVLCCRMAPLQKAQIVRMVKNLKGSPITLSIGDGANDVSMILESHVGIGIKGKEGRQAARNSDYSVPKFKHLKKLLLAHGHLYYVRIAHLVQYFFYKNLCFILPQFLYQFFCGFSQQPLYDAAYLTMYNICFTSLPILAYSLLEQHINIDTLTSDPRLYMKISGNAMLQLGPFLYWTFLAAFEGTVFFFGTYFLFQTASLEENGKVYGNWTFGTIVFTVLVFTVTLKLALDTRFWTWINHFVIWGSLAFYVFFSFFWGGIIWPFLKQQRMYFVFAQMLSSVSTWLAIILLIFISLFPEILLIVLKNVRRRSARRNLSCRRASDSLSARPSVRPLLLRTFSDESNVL
Procedure, shortened: as §1

With `Nc1ncnc2c1ncn2[C@@H]1O[C@H](COP(=O)(O)OP(=O)(O)OP(=O)(O)O)[C@@H](O)[C@H]1O` [adenosine triphosphate] the NP40-soluble protein abundance (A0A024R1V6|P35227; concentration: 1mM) was 1.06 ± 0.048, the NP40-soluble protein abundance (A0A024R1V6|P35227; concentration: 2mM) was 1.11 ± 0.057 and the NP40-soluble protein abundance (A0A024R1V6|P35227; concentration: 4mM) was 1.21 ± 0.05. The NP40-soluble protein abundance (A0A024R1V6|P35227; concentration: 6mM) was 1.16 ± 0.068, the NP40-soluble protein abundance (A0A024R1V6|P35227; concentration: 8mM) was 1.32 ± 0.048 and the NP40-soluble protein abundance (A0A024R1V6|P35227; concentration: 10mM) was 1.28 ± 0.054. For the same compound, the NP40-soluble protein abundance (A0A024R216|Q9Y3E1; concentration: 1mM) was 1.03 ± 0.048, the NP40-soluble protein abundance (A0A024R216|Q9Y3E1; concentration: 2mM) was 1.06 ± 0.031 and the NP40-soluble protein abundance (A0A024R216|Q9Y3E1; concentration: 4mM) was 1.01 ± 0.028. It also gave an NP40-soluble protein abundance (A0A024R216|Q9Y3E1; concentration: 6mM) of 1.109 ± 0.0039, an NP40-soluble protein abundance (A0A024R216|Q9Y3E1; concentration: 8mM) of 1 ± 0.038 and an NP40-soluble protein abundance (A0A024R216|Q9Y3E1; concentration: 10mM) of 1.03 ± 0.053. For the same compound, the NP40-soluble protein abundance (A0A024R4E5; concentration: 1mM) was 0.893 ± 0.021, the NP40-soluble protein abundance (A0A024R4E5; concentration: 2mM) was 0.891 ± 0.02 and the NP40-soluble protein abundance (A0A024R4E5; concentration: 4mM) was 0.8973 ± 0.0079. For the same compound, the NP40-soluble protein abundance (A0A024R4E5; concentration: 6mM) was 0.925 ± 0.036, the NP40-soluble protein abundance (A0A024R4E5; concentration: 8mM) was 0.971 ± 0.026 and the NP40-soluble protein abundance (A0A024R4E5; concentration: 10mM) was 1.02 ± 0.033. It also gave an NP40-soluble protein abundance ([1]; concentration: 1mM) of 0.972 ± 0.082, an NP40-soluble protein abundance ([1]; concentration: 2mM) of 1.09 ± 0.02 and an NP40-soluble protein abundance ([1]; concentration: 4mM) of 1.03 ± 0.13. It also gave an NP40-soluble protein abundance ([1]; concentration: 6mM) of 1.07 ± 0.076, an NP40-soluble protein abundance ([1]; concentration: 8mM) of 1.08 ± 0.051 and an NP40-soluble protein abundance ([1]; concentration: 10mM) of 1.06 ± 0.17. For the same compound, the NP40-soluble protein abundance (A0A024R4M0|P46781; concentration: 1mM) was 0.875 ± 0.1, the NP40-soluble protein abundance (A0A024R4M0|P46781; concentration: 2mM) was 0.799 ± 0.063 and the NP40-soluble protein abundance (A0A024R4M0|P46781; concentration: 4mM) was 0.774 ± 0.021. The NP40-soluble protein abundance (A0A024R4M0|P46781; concentration: 6mM) was 0.672 ± 0.052, the NP40-soluble protein abundance (A0A024R4M0|P46781; concentration: 8mM) was 0.675 ± 0.018 and the NP40-soluble protein abundance (A0A024R4M0|P46781; concentration: 10mM) was 0.708 ± 0.069. The NP40-soluble protein abundance ([2]; concentration: 1mM) was 0.984 ± 0.057, the NP40-soluble protein abundance ([2]; concentration: 2mM) was 1 ± 0.039 and the NP40-soluble protein abundance ([2]; concentration: 4mM) was 0.968 ± 0.02. The NP40-soluble protein abundance ([2]; concentration: 6mM) was 0.939 ± 0.065, the NP40-soluble protein abundance ([2]; concentration: 8mM) was 0.952 ± 0.092 and the NP40-soluble protein abundance ([2]; concentration: 10mM) was 1.01 ± 0.044. For the same compound, the NP40-soluble protein abundance ([3]; concentration: 1mM) was 1.18 ± 0.077, the NP40-soluble protein abundance ([3]; concentration: 2mM) was 1.07 ± 0.022 and the NP40-soluble protein abundance ([3]; concentration: 4mM) was 1.13 ± 0.025. For the same compound, the NP40-soluble protein abundance ([3]; concentration: 6mM) was 1.14 ± 0.089, the NP40-soluble protein abundance ([3]; concentration: 8mM) was 1.16 ± 0.078 and the NP40-soluble protein abundance ([3]; concentration: 10mM) was 1.237 ± 0.0093. The NP40-soluble protein abundance (A0A024R644|O75503; concentration: 1mM) was 0.928 ± 0.041, the NP40-soluble protein abundance (A0A024R644|O75503; concentration: 2mM) was 0.979 ± 0.027 and the NP40-soluble protein abundance (A0A024R644|O75503; concentration: 4mM) was 0.945 ± 0.024. The NP40-soluble protein abundance (A0A024R644|O75503; concentration: 6mM) was 0.933 ± 0.049, the NP40-soluble protein abundance (A0A024R644|O75503; concentration: 8mM) was 0.936 ± 0.03 and the NP40-soluble protein abundance (A0A024R644|O75503; concentration: 10mM) was 0.964 ± 0.033. It also gave an NP40-soluble protein abundance (A0A024RA52|P25787; concentration: 1mM) of 0.921 ± 0.029, an NP40-soluble protein abundance (A0A024RA52|P25787; concentration: 2mM) of 0.879 ± 0.028 and an NP40-soluble protein abundance (A0A024RA52|P25787; concentration: 4mM) of 0.843 ± 0.033. The NP40-soluble protein abundance (A0A024RA52|P25787; concentration: 6mM) was 0.881 ± 0.098, the NP40-soluble protein abundance (A0A024RA52|P25787; concentration: 8mM) was 0.878 ± 0.08 and the NP40-soluble protein abundance (A0A024RA52|P25787; concentration: 10mM) was 0.862 ± 0.051. For the same compound, the NP40-soluble protein abundance (A0A024RAC6; concentration: 1mM) was 0.961 ± 0.072, the NP40-soluble protein abundance (A0A024RAC6; concentration: 2mM) was 0.997 ± 0.044 and the NP40-soluble protein abundance (A0A024RAC6; concentration: 4mM) was 1.02 ± 0.06. The NP40-soluble protein abundance (A0A024RAC6; concentration: 6mM) was 1.09 ± 0.041, the NP40-soluble protein abundance (A0A024RAC6; concentration: 8mM) was 1.05 ± 0.022 and the NP40-soluble protein abundance (A0A024RAC6; concentration: 10mM) was 1.06 ± 0.048. It also gave an NP40-soluble protein abundance ([4]; concentration: 1mM) of 1.09 ± 0.033, an NP40-soluble protein abundance ([4]; concentration: 2mM) of 1.12 ± 0.026 and an NP40-soluble protein abundance ([4]; concentration: 4mM) of 1.12 ± 0.066. It also gave an NP40-soluble protein abundance ([4]; concentration: 6mM) of 1.14 ± 0.051, an NP40-soluble protein abundance ([4]; concentration: 8mM) of 1.23 ± 0.025 and an NP40-soluble protein abundance ([4]; concentration: 10mM) of 1.21 ± 0.018. For the same compound, the NP40-soluble protein abundance ([5]; concentration: 1mM) was 0.923 ± 0.055, the NP40-soluble protein abundance ([5]; concentration: 2mM) was 0.942 ± 0.046 and the NP40-soluble protein abundance ([5]; concentration: 4mM) was 0.927 ± 0.049. The NP40-soluble protein abundance ([5]; concentration: 6mM) was 0.875 ± 0.07, the NP40-soluble protein abundance ([5]; concentration: 8mM) was 0.893 ± 0.06 and the NP40-soluble protein abundance ([5]; concentration: 10mM) was 0.917 ± 0.045. For the same compound, the NP40-soluble protein abundance ([6]; concentration: 1mM) was 0.973 ± 0.026, the NP40-soluble protein abundance ([6]; concentration: 2mM) was 0.957 ± 0.021 and the NP40-soluble protein abundance ([6]; concentration: 4mM) was 0.951 ± 0.03. For the same compound, the NP40-soluble protein abundance ([6]; concentration: 6mM) was 0.951 ± 0.043, the NP40-soluble protein abundance ([6]; concentration: 8mM) was 0.944 ± 0.045 and the NP40-soluble protein abundance ([6]; concentration: 10mM) was 0.94 ± 0.01. It also gave an NP40-soluble protein abundance (A0A067XG54; concentration: 1mM) of 1.07 ± 0.059, an NP40-soluble protein abundance (A0A067XG54; concentration: 2mM) of 1.05 ± 0.043 and an NP40-soluble protein abundance (A0A067XG54; concentration: 4mM) of 1.02 ± 0.069. The NP40-soluble protein abundance (A0A067XG54; concentration: 6mM) was 0.974 ± 0.062, the NP40-soluble protein abundance (A0A067XG54; concentration: 8mM) was 1.04 ± 0.037 and the NP40-soluble protein abundance (A0A067XG54; concentration: 10mM) was 1.015 ± 0.0045.
